# Reference: PubChem BioAssay AID2551 (National Center for Advancing Translational Sciences (NCATS), 2010)
# Protein sequences, listed by entry. Tags and fused reporters are not part of them. Lines headed by an entry give the natural chain unless they say otherwise; changes in a name come on top.
# UniProt P51450: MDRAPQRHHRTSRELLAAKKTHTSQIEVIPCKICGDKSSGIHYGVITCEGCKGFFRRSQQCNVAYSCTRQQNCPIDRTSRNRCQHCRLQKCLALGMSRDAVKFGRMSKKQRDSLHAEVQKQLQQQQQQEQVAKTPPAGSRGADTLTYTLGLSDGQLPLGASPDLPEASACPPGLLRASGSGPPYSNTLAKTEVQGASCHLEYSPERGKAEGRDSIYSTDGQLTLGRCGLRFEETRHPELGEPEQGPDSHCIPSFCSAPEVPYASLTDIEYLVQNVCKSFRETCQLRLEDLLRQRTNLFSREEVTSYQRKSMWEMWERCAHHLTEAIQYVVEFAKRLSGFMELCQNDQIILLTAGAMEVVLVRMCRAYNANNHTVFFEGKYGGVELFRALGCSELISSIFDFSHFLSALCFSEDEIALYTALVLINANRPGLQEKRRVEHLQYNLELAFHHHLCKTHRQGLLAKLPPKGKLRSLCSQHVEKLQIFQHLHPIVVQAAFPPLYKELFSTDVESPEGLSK
# About 17,000 (5.5%) of roughly 310,000 compounds were called active. Inconclusive means that the source gave no clear call. Such entries were picked first, then a sample of the others. The call rests on the fitted dose curve; in most records, active means well fitted inhibition curve with a large enough effect; inconclusive means small, poorly fitted or top-dose-only effect, or effect the other way; inactive means no such curve, though single readings can be large or run the other way. Potencies of inconclusive entries are doubtful fits and often do not repeat.
# Molecular target: Nuclear receptor ROR-gamma (Mus musculus) (UniProt P51450)
# Test: qHTS for inhibitors of ROR gamma transcriptional activity; further: nearly all actives have a fitted effect of over 60% in size
# Conditions: Drosophila S2 Gal4-RORgamma UAS-luciferase reporter, 20 h; activity change, negative = inhibition: at 53.6 µM (top of the series)
# How it was run: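 A Gal4/UAS one-hybrid system in insect cells: metallothionein-promoter Gal4–ROR gamma fusion plus Photinus luciferase reporter. Copper sulfate 700 uM final, 20 hr ambient incubation, luminescent detection after 10 min with reagent.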
# On the % scale 0 is the no-effect control and ±100 the full control effect; potency means the concentration at half of the fitted maximal effect.
SMILES,Potency,"activity change, negative = inhibition"
CCCCCCCCNC(=O)c1cnccn1,"inconclusive: 12.6 µM [activator, partial curve]",
COc1cccc(NC(=O)N2CCC(C(=O)Nc3ccc(C)cc3C)CC2)c1,,inactive: -14.6% [at 10 µM]
Clc1ccc(-c2n[nH]c3c2CCC3)cc1Cl,"inconclusive: 20 µM [inhibitor, single point]",
CC(C1CC2CCC1C2)n1c(-c2cccs2)n[nH]c1=S (stereo not drawn),active: 0.794 µM,
CCOC(=O)c1sc2ccccc2c1OC(=O)c1ccc(C)cc1,"inconclusive: 7.94 µM [activator, single point]",
C/C(=N\Nc1ccc([N+](=O)[O-])cc1)c1cc2ccccc2o1,"inconclusive: 11.2 µM [activator, partial curve]",
S=C(NCc1cccnc1)Nc1ccc(Oc2ccccc2)cc1,"inconclusive: 35.5 µM [inhibitor, single point]",
CCCOc1ccc2c(=O)c(N3C(=O)c4ccccc4C3=O)c(C)oc2c1,"inconclusive: 11.2 µM [activator, partial curve]",
Cc1nnc2c3ccccc3c(-c3cccs3)nn12,"inconclusive: 28.2 µM [inhibitor, single point]",
COC(=O)C1=C(C)NC(C)=C(C(=O)OCCSc2ccccc2)C1C (stereo not drawn),"inconclusive: 25.1 µM [activator, single point]",
CN(C)c1ccc(N2C(=NC(=O)c3ccccc3)SC3CS(=O)(=O)CC32)cc1 (stereo not drawn),,inactive: 3.68%
C/C=C/c1ccc(OCCCNCC(C)O)c(OC)c1 (stereo not drawn),,inactive: -5.1%
CC(=O)c1cccc(NC(=O)CN2C(=O)c3cccnc3Oc3ccc(Cl)cc32)c1,,inactive: 10.5%
O=C1c2cccc3c(Nc4ccccc4Cl)c([N+](=O)[O-])cc(c23)C(=O)N1CCO,"inconclusive: 20 µM [activator, single point]",
Cc1cc2cc(CCNC(=O)c3ccc(S(=O)(=O)N4CCCC4)cc3)c(=O)[nH]c2cc1C,,inactive: 5.93%
O=C(Nc1cc(Cl)cc(Cl)c1)c1ccc(Cn2c(=O)[nH]c3ccsc3c2=O)cc1,"inconclusive: 35.5 µM [inhibitor, single point]",
COc1cc2c3nnc(-c4ccc(F)cc4)c-3cn(Cc3cccc(C)c3)c2cc1OC,"inconclusive: 22.4 µM [inhibitor, single point]",
COc1cc(C(=S)N2CCCC2)cc(OC)c1OS(=O)(=O)c1ccc(NC(C)=O)cc1,,inactive: 35.7%
Cc1ccc(S(=O)(=O)N/N=C\c2cn(CC(N)=O)c3ccccc23)cc1,"inconclusive: 12.6 µM [activator, single point]",
Cc1ccc(-c2cc(C(=O)N/N=C/C=C/c3ccccc3)n[nH]2)o1,active: 7.08 µM,
CCCOc1ccc(Cc2c(Cl)nc(SC)nc2N(C)C)cc1,"inconclusive: 35.5 µM [inhibitor, single point]",
S=c1[nH]cc(-c2ccccc2)n1-c1cccc(Cl)c1,active: 2.51 µM,
C=CCN(CC=C)S(=O)(=O)c1ccc(C(=O)Nc2nnc(COC)o2)cc1,active: 2 µM,
CCCc1nc(Nc2nc3ccccc3o2)nc(C)c1C(=O)OCC,active: 6.31 µM,
O=C(N/N=C/c1c[nH]c2ccccc12)c1cc(-c2ccc(-c3ccccc3)cc2)n[nH]1,active: 5.62 µM,

# Single records (already shown).
# CC(=O)c1cccc(NC(=O)CN2C(=O)c3cccnc3Oc3ccc(Cl)cc32)c1 is listed with activity change, negative = inhibition: inactive: 10.5%
# O=C(Nc1cc(Cl)cc(Cl)c1)c1ccc(Cn2c(=O)[nH]c3ccsc3c2=O)cc1 is listed with Potency: inconclusive: 35.5 µM [inhibitor, single point]

# Following part

SMILES,Potency,"activity change, negative = inhibition"
Cc1nn(Cc2cccc(C(=O)N3CCCC(C)C3)c2)c(C)c1[N+](=O)[O-] (stereo not drawn),"inconclusive: 12.6 µM [activator, partial curve]",
CCn1c(-c2ccc(Cl)cc2)n[nH]c1=S,active: 10 µM,
Cc1cc(O)c(/C=N/OCc2ccc(Cl)cc2Cl)c(=O)o1,active: 12.6 µM,
O=C(NCc1ccccc1)c1ccc(CS(=O)(=O)Cc2ccccc2F)o1,,inactive: -2.34%
O=C(NC(=S)Nc1ccccc1C(F)(F)F)c1ccccc1F,active: 6.31 µM,
Cc1ccc(S(=O)(=O)c2ccc(Oc3ccccc3)cc2)cc1,"inconclusive: 20 µM [activator, single point]",
CCCCCCc1cc2cc(C(=O)OCC)c(=O)oc2cc1O,,inactive: -7.29%
COc1ccc(CNC(=O)Nc2cc(C)cc(C)c2)cc1,,inactive: -14.8%
COc1ccc(CCN2C(=O)C3CC=C(C)CC3C2=O)cc1OC (stereo not drawn),"inconclusive: 5.62 µM [activator, full curve, poor fit]",
CC(C)=NNC(=O)CN1C(=O)NC2NC(=O)NC21 (stereo not drawn),"inconclusive: 0.794 µM [inhibitor, full curve, poor fit]",
CCCN(CC(=O)Nc1ccccc1C)C(=O)CCl,"inconclusive: 14.1 µM [inhibitor, single point]",
O=C(NCC(=O)N1CCCCCC1)c1ccc(Cl)cc1,"inconclusive: 1.12 µM [activator, full curve, poor fit]",
Cc1ccc(F)cc1CNC(=O)C1CCC(=O)N(CC2CCCCC2)C1 (stereo not drawn),"inconclusive: 28.2 µM [activator, single point]",
Cc1ccc(N2CCN(C(=S)c3ccc(-c4ccccc4[N+](=O)[O-])o3)CC2)cc1,,inactive: -5.98%
Cc1ccc(OC(=O)CCC(=O)N2CCc3ccccc32)cc1,"inconclusive: 35.5 µM [inhibitor, single point]",
CC(=O)c1c(N2CCOCC2)nc(=S)n(-c2cc(C)ccc2C)c1C,"inconclusive: 20 µM [inhibitor, single point]",
COc1ccc(CCNC(=O)Nc2ccc(F)cc2F)cc1OC,,inactive: -12.5%
Cc1cc(OCCCCn2ccnc2)cc(C)c1Cl,active: 12.6 µM,
CCOc1ccc(NC(=O)/C(C#N)=C/c2ccc(N3CCCC3)c(C)c2)cc1,"inconclusive: 35.5 µM [activator, single point]",
CCOC(=O)N1CCC(NC(=O)C2CCN(C(=O)c3cc4sccc4n3CC)CC2)CC1,"inconclusive: 22.4 µM [activator, single point]",
CCC(=O)N1N=C(c2c(-c3ccccc3)c3cc(Cl)ccc3[nH]c2=O)CC1c1ccco1 (stereo not drawn),"inconclusive: 35.5 µM [inhibitor, single point]",
Cc1ccc(N=Nc2c(O)ccc3n[nH]nc23)cc1,"inconclusive: 22.4 µM [inhibitor, single point]",
COc1ccccc1NC(=O)CN1CC(=O)Nc2ccccc21,,inactive: 0.596%
CCC1(CC)N=C(c2ccccc2)C(=S)N1,active: 3.55 µM,
Fc1ccc(N2CCN(/C=C/c3nnnn3-c3ccccc3)CC2)cc1,,inactive: 38.1%

SMILES,Potency,"activity change, negative = inhibition"
COc1cc(/C=N/NC(=O)c2sc3nc(C)cc(C)c3c2N)ccc1O,,inactive: -0.0185%
O=C(Nc1cccc(Cl)c1N1CCOCC1)c1cc([N+](=O)[O-])ccc1N1CCOCC1,"inconclusive: 35.5 µM [activator, single point]",
CCOc1ccc(CCNC(=O)COC(=O)c2ccc(OC)c(OC)c2OC)cc1OCC,,inactive: 31.2%
COc1ccc(OC2C(=O)N(Cc3ccc(F)cc3)C2c2cc(OC)c(OC)c(OC)c2)cc1 (stereo not drawn),"inconclusive: 17.8 µM [activator, single point]",
CCC(C)Sc1cc(C(F)(F)F)c(C(=O)Nc2ccc(Cl)cc2)cn1 (stereo not drawn),"inconclusive: 35.5 µM [activator, single point]",
Nc1c(-c2cccc(Cl)c2)cnn1-c1cccc(C(F)(F)F)c1,"inconclusive: 12.6 µM [activator, single point]",
Clc1ccc2[nH]cc(-c3nnnn3-c3ccccc3)c2c1,"inconclusive: 25.1 µM [activator, single point]",
N#Cc1ccc(-c2cccnc2)nc1SCC(=O)c1ccccc1,"inconclusive: 20 µM [inhibitor, single point]",
CS(=O)(=O)N1CCN(c2ccccc2NC(=O)Nc2cccc(Cl)c2)CC1,"inconclusive: 31.6 µM [activator, single point]",
COc1ccc(-n2c(NN)nc3sc4c(c3c2=O)CCCC4)cc1,"inconclusive: 14.1 µM [inhibitor, single point]",
Cc1cccc(NC(=O)CSc2nccn2Cc2ccco2)c1C,"inconclusive: 35.5 µM [inhibitor, single point]",
O=C(Nc1ccc(Cl)cc1)Nc1cnccn1,,inactive: 6.96%
CCCCn1c(SCC(=O)NCc2ccccc2)nc2ccc(N3CCOCC3)cc2c1=O,"inconclusive: 8.91 µM [inhibitor, partial curve, poor fit]",
NS(=O)(=O)c1ccc(CCNS(=O)(=O)c2cccc(C(=O)O)c2)cc1,,inactive: -3.49%
O=C(/C=C/c1ccco1)c1ccc(O)cc1,"inconclusive: 35.5 µM [inhibitor, single point]",
Cn1nc(C(C)(C)C)c([N+](=O)[O-])c1C(=O)Nc1ccc(Br)cc1,"inconclusive: 35.5 µM [activator, single point]",
O=C(Nc1cc(C(F)(F)F)cc(C(F)(F)F)c1)c1ccc(Cn2cc(C(F)(F)F)ccc2=O)cc1,"inconclusive: 14.1 µM [activator, partial curve]",
Cc1ccc(C(=O)NC(=S)Nc2ccc(N3CCOCC3)cc2)c(C)c1,active: 2.51 µM,
COc1ccc(C/C(O)=C(\C#N)c2nc3ccccc3s2)cc1,"inconclusive: 35.5 µM [inhibitor, single point]",
CC(=O)c1c(C)[nH]c(C(=O)CSc2nc3ccc(C)cc3[nH]2)c1C,"inconclusive: 0.501 µM [activator, full curve]",
NCCNC(=O)c1c(O)c2cccc3c2n(c1=O)CCC3,"inconclusive: 15.8 µM [inhibitor, single point]",
O=C(Nc1cccc(C(=O)O)c1)/C(=C\c1ccc(F)cc1)NC(=O)c1ccco1,,inactive: -19.8%
CCCOc1ccc(NC(=O)C2CC(=O)N/C(=N/N=C(C)/C=C/c3ccc(N(C)C)cc3)S2)cc1 (stereo not drawn),active: 2.82 µM,

# 2 consecutive compounds already listed, for reference:
SMILES,Potency,"activity change, negative = inhibition"
Cc1ccc(C(=O)NC(=S)Nc2ccc(N3CCOCC3)cc2)c(C)c1,active: 2.51 µM,
COc1ccc(C/C(O)=C(\C#N)c2nc3ccccc3s2)cc1,"inconclusive: 35.5 µM [inhibitor, single point]",
